Measurements from the supplement of paper PMC4604168 (melanoma cell lines).
Some of the results follow. Many values rest on one well or one pass, so single values are uncertain.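 Cells were imaged in 1,536-well plates, and nuclei stained with an antibody against cleaved PARP were counted against all DNA-stained nuclei to give the apoptosis fraction. Screening doses were chosen to leave most cells alive, and resting and induced cleaved-PARP levels differ strongly between cell lines.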

System: WM115
Test: cleaved PARP positive nuclei fraction relative to DMSO control; melanoma cells; higher = more apoptosis
Details: library dose: low library concentration; 72 h

| SMILES | cleaved PARP positive nuclei fraction [%] |
| --- | --- |
| Cc1cn(-c2cc(NC(=O)c3ccc(C)c(Nc4nccc(-c5cccnc5)n4)c3)cc(C(F)(F)F)c2)cn1 [nilotinib] + CN1CCN(c2ccc3nc(-c4c(N)c5c(F)cccc5[nH]c4=O)[nH]c3c2)CC1 [Dovitinib] (first compound 0.2 µM, partner dose 0.1 µM) | 41.5 |
| Cc1cc(Nc2cc(N3CCN(C)CC3)nc(Sc3ccc(NC(=O)C4CC4)cc3)n2)n[nH]1 [Tozasertib] + O=c1[nH]nc(Sc2ncc([N+](=O)[O-])s2)n1-c1ccc2c(c1)OCCO2 [BI78D3] (first compound 0.006 µM, partner dose 0.2 µM) | 141 |
| COc1cc([C@@H]2c3cc4c(cc3[C@@H](O[C@@H]3O[C@@H]5CO[C@@H](C)O[C@H]5[C@H](O)[C@H]3O)[C@H]3COC(=O)[C@H]23)OCO4)cc(OC)c1O [etoposide] + C=C(c1ccc(C(=O)O)cc1)c1cc2c(cc1C)C(C)(C)CCC2(C)C [Bexarotene] (first compound 0.02 µM, partner dose 2 µM) | 61.1 |
| N#CC[C@H](C1CCCC1)n1cc(-c2ncnc3[nH]ccc23)cn1 [ruxolitinib] + Clc1ccc(Nc2nnc(Cc3ccncc3)c3ccccc23)cc1 [vatalanib] (first compound 1 µM, partner dose 2 µM) | 157 |
| N#CC[C@H](C1CCCC1)n1cc(-c2ncnc3[nH]ccc23)cn1 [ruxolitinib] + CC(=O)O[C@@]12CO[C@@H]1C[C@H](O)[C@@]1(C)C(=O)[C@H](O)C3=C(C)[C@@H](OC(=O)[C@H](O)[C@@H](NC(=O)OC(C)(C)C)c4ccccc4)C[C@@](O)([C@@H](OC(=O)c4ccccc4)[C@H]21)C3(C)C [Docetaxel] (first compound 1 µM, partner dose 0.0001 µM) | 292 |
| N#CC[C@H](C1CCCC1)n1cc(-c2ncnc3[nH]ccc23)cn1 [ruxolitinib] + C[C@]1(O)C[C@@H](c2nc(-c3ccc4ccc(-c5ccccc5)nc4c3)c3c(N)nccn32)C1 [OSI906] (first compound 1 µM, partner dose 0.4 µM) | 82.7 |
| Cc1cn(-c2cc(NC(=O)c3ccc(C)c(Nc4nccc(-c5cccnc5)n4)c3)cc(C(F)(F)F)c2)cn1 [nilotinib] + O=C(O)C(=O)Nc1sc2c(c1C(=O)O)CCNC2 [TCS401] (first compound 0.2 µM, partner dose 1.66667 µM) | 76.7 |
| Cc1cc(Nc2cc(N3CCN(C)CC3)nc(Sc3ccc(NC(=O)C4CC4)cc3)n2)n[nH]1 [Tozasertib] + CS(=O)(=O)CCNCc1ccc(-c2ccc3ncnc(Nc4ccc(OCc5cccc(F)c5)c(Cl)c4)c3c2)o1 [lapatinib] (first compound 0.006 µM, partner dose 0.8 µM) | 52.1 |
| CC[C@]1(O)C[C@H]2CN(CCc3c([nH]c4ccccc34)[C@@](C(=O)OC)(c3cc4c(cc3OC)N(C=O)[C@H]3[C@@](O)(C(=O)OC)[C@H](OC(C)=O)[C@]5(CC)C=CCN6CC[C@]43[C@@H]65)C2)C1 [vincristine] + COc1ccc(-c2ccc3c(N4CCOCC4)nc(N4C[C@@H](C)O[C@@H](C)C4)nc3n2)cc1CO [KU0063794] (first compound 0.0001 µM, partner dose 0.02 µM) | 420 |
| O=C(Nc1cc(C(F)(F)F)cc(C(F)(F)F)c1)c1cc(Cl)ccc1O + Cn1nnc2c(C(N)=O)ncn2c1=O [temozolomide] (first compound 0.016 µM, partner dose 2 µM) | 178 |
| CCCCCCCCCCCCCCCCCCOP(=O)([O-])OC1CC[N+](C)(C)CC1 [Perifosine] + Cn1cc(/C=C2\C(=O)Nc3cccnc32)c2ccccc21 [GW441756] (first compound 0.4 µM, partner dose 0.4 µM) | 98.7 |
| N#CC[C@H](C1CCCC1)n1cc(-c2ncnc3[nH]ccc23)cn1 [ruxolitinib] + CC1(C)CCC(c2ccc(Cl)cc2)=C(CN2CCN(c3ccc(C(=O)NS(=O)(=O)c4ccc(N[C@H](CCN5CCOCC5)CSc5ccccc5)c(S(=O)(=O)C(F)(F)F)c4)cc3)CC2)C1 [ABT263] (first compound 1 µM, partner dose 0.4 µM) | 308 |
| O=c1[nH]nc(Sc2ncc([N+](=O)[O-])s2)n1-c1ccc2c(c1)OCCO2 + COc1cc2ncnc(Nc3ccc(Oc4ccccc4)cc3)c2cc1OC [SrcI1] (first compound 0.2 µM, partner dose 2 µM) | 61.7 |
| CC[C@]1(O)C[C@H]2CN(CCc3c([nH]c4ccccc34)[C@@](C(=O)OC)(c3cc4c(cc3OC)N(C=O)[C@H]3[C@@](O)(C(=O)OC)[C@H](OC(C)=O)[C@]5(CC)C=CCN6CC[C@]43[C@@H]65)C2)C1 [vincristine] + CN(C)S(=O)(=O)c1ccc2c(c1)/C(=C/c1cc3c([nH]1)CCCC3)C(=O)N2 [SU6656] (first compound 0.0001 µM, partner dose 0.4 µM) | 3070 |
| O=C(Nc1cc(C(F)(F)F)cc(C(F)(F)F)c1)c1cc(Cl)ccc1O + COc1ccc(C2=N[C@@H](c3ccc(Cl)cc3)[C@@H](c3ccc(Cl)cc3)N2C(=O)N2CCNC(=O)C2)c(OC(C)C)c1 [Nutlin-3] (first compound 0.016 µM, partner dose 0.1 µM) | 29.1 |
| O=C(/C=C/c1cccnc1)NCCCCC1CCN(C(=O)c2ccccc2)CC1 + COc1ccc(Cl)c(Nc2nc3ccccc3nc2NS(=O)(=O)c2cccc(NC(=O)C(C)(C)N)c2)c1 [XL147] (first compound 0.01 µM, partner dose 0.8 µM) | 40.4 |
| N#CC[C@H](C1CCCC1)n1cc(-c2ncnc3[nH]ccc23)cn1 [ruxolitinib] + CO[C@@H]1[C@H](N(C)C(=O)c2ccccc2)C[C@H]2O[C@]1(C)n1c3ccccc3c3c4c(c5c6ccccc6n2c5c31)C(=O)NC4 [Midostaurin] (first compound 1 µM, partner dose 0.08 µM) | 297 |
| Cc1cc(Nc2cc(N3CCN(C)CC3)nc(Sc3ccc(NC(=O)C4CC4)cc3)n2)n[nH]1 [Tozasertib] + NC1(c2ccc(-c3nc4ccn5c(=O)[nH]nc5c4cc3-c3ccccc3)cc2)CCC1 [MK2206] (first compound 0.006 µM, partner dose 0.4 µM) | 29.7 |
| Cc1ccc(Nc2nccc(N(C)c3ccc4c(C)n(C)nc4c3)n2)cc1S(N)(=O)=O [Pazopanib] + Cc1cc([N+](=O)[O-])ccc1NS(=O)(=O)c1cc(Cl)ccc1Cl [FH535] (first compound 0.4 µM, partner dose 1 µM) | 258 |
| O=C(Nc1cc(C(F)(F)F)cc(C(F)(F)F)c1)c1cc(Cl)ccc1O + CC(C)CCN1c2nc(Nc3cc(F)c(O)c(F)c3)ncc2N(C)C(=O)C1C [BID1870] (first compound 0.016 µM, partner dose 0.2 µM) | 170 |
| N#CC[C@H](C1CCCC1)n1cc(-c2ncnc3[nH]ccc23)cn1 [ruxolitinib] + CCCS(=O)(=O)Nc1ccc(F)c(C(=O)c2c[nH]c3ncc(Cl)cc23)c1F [PLX4720] (first compound 1 µM, partner dose 0.08 µM) | 135 |
| Cc1cn(-c2cc(NC(=O)c3ccc(C)c(Nc4nccc(-c5cccnc5)n4)c3)cc(C(F)(F)F)c2)cn1 [nilotinib] + Nc1ncn([C@H]2C[C@H](O)[C@@H](CO)O2)c(=O)n1 [decitabine] (first compound 0.2 µM, partner dose 0.1 µM) | 111 |
| O=c1[nH]nc(Sc2ncc([N+](=O)[O-])s2)n1-c1ccc2c(c1)OCCO2 + OCCn1cc(-c2cnc3nnn(Cc4ccc5ncccc5c4)c3n2)cn1 [PF04217903] (first compound 0.2 µM, partner dose 1 µM) | 87.9 |
| Cc1ccc(Nc2nccc(N(C)c3ccc4c(C)n(C)nc4c3)n2)cc1S(N)(=O)=O [Pazopanib] + N#Cc1c(O)c2c(-c3ccc(-c4ccccc4O)cc3)csc2[nH]c1=O [A769662] (first compound 0.4 µM, partner dose 2 µM) | 163 |
| Cc1ccc(Nc2nccc(N(C)c3ccc4c(C)n(C)nc4c3)n2)cc1S(N)(=O)=O [Pazopanib] + CCc1ccc(CCOc2ccc(CC3SC(=O)NC3=O)cc2)nc1 [pioglitazone] (first compound 0.4 µM, partner dose 2 µM) | 85.1 |

Random excerpt: 2 records from the list.

| SMILES | cleaved PARP positive nuclei fraction [%] |
| --- | --- |
| CCCCCCCCCCCCCCCCCCOP(=O)([O-])OC1CC[N+](C)(C)CC1 [Perifosine] + Cn1cc(/C=C2\C(=O)Nc3cccnc32)c2ccccc21 [GW441756] (first compound 0.4 µM, partner dose 0.4 µM) | 98.7 |
| O=c1[nH]nc(Sc2ncc([N+](=O)[O-])s2)n1-c1ccc2c(c1)OCCO2 + COc1cc2ncnc(Nc3ccc(Oc4ccccc4)cc3)c2cc1OC [SrcI1] (first compound 0.2 µM, partner dose 2 µM) | 61.7 |
